No constants are given. Whether binding was seen depends on the method and setting. In cells and extracts the contact can be indirect. These calls come from enrichment with a bait or labelling near it, and not all partners need be listed. Sequences can lack the tags named with a protein. Blank lines part the entries; values can stand above or below the molecule they belong to.
Biological target: T1, ORC2-GFP (Drosophila (endogenous in embryos)) (UniProt Q24168)
T1 sequence: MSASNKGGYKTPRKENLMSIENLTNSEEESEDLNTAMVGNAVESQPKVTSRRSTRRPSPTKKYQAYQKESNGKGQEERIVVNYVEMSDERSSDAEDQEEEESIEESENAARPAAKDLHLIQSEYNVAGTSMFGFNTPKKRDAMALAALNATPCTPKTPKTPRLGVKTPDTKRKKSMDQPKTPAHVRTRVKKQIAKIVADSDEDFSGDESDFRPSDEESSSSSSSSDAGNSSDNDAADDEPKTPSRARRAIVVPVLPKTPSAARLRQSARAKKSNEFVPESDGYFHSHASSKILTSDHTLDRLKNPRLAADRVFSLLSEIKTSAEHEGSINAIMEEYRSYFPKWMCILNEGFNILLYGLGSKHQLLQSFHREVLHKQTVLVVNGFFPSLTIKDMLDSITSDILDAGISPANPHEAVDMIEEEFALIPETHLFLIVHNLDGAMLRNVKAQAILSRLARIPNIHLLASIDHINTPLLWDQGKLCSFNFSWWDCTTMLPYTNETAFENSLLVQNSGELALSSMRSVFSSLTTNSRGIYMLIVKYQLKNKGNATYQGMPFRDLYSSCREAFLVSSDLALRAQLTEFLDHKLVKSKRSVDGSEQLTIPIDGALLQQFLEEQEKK
Experiment: affinity purification with mass spectrometry; GFP-Trap magnetic agarose IP of ORC2-GFP from extracts of Drosophila embryos aged 18-24 h (Oregon R embryos as negative control); NP40 lysis buffer (50 mM Tris HCl pH 8.0, 150 mM NaCl, 1% NP40, 1 mM EDTA, 1 mM EGTA); extract treated with benzonase; 2 h at 4°C; three biological replicates

The chains behind the UniProt entries cited, without tags or fusion partners.
UniProt Q9VWE6: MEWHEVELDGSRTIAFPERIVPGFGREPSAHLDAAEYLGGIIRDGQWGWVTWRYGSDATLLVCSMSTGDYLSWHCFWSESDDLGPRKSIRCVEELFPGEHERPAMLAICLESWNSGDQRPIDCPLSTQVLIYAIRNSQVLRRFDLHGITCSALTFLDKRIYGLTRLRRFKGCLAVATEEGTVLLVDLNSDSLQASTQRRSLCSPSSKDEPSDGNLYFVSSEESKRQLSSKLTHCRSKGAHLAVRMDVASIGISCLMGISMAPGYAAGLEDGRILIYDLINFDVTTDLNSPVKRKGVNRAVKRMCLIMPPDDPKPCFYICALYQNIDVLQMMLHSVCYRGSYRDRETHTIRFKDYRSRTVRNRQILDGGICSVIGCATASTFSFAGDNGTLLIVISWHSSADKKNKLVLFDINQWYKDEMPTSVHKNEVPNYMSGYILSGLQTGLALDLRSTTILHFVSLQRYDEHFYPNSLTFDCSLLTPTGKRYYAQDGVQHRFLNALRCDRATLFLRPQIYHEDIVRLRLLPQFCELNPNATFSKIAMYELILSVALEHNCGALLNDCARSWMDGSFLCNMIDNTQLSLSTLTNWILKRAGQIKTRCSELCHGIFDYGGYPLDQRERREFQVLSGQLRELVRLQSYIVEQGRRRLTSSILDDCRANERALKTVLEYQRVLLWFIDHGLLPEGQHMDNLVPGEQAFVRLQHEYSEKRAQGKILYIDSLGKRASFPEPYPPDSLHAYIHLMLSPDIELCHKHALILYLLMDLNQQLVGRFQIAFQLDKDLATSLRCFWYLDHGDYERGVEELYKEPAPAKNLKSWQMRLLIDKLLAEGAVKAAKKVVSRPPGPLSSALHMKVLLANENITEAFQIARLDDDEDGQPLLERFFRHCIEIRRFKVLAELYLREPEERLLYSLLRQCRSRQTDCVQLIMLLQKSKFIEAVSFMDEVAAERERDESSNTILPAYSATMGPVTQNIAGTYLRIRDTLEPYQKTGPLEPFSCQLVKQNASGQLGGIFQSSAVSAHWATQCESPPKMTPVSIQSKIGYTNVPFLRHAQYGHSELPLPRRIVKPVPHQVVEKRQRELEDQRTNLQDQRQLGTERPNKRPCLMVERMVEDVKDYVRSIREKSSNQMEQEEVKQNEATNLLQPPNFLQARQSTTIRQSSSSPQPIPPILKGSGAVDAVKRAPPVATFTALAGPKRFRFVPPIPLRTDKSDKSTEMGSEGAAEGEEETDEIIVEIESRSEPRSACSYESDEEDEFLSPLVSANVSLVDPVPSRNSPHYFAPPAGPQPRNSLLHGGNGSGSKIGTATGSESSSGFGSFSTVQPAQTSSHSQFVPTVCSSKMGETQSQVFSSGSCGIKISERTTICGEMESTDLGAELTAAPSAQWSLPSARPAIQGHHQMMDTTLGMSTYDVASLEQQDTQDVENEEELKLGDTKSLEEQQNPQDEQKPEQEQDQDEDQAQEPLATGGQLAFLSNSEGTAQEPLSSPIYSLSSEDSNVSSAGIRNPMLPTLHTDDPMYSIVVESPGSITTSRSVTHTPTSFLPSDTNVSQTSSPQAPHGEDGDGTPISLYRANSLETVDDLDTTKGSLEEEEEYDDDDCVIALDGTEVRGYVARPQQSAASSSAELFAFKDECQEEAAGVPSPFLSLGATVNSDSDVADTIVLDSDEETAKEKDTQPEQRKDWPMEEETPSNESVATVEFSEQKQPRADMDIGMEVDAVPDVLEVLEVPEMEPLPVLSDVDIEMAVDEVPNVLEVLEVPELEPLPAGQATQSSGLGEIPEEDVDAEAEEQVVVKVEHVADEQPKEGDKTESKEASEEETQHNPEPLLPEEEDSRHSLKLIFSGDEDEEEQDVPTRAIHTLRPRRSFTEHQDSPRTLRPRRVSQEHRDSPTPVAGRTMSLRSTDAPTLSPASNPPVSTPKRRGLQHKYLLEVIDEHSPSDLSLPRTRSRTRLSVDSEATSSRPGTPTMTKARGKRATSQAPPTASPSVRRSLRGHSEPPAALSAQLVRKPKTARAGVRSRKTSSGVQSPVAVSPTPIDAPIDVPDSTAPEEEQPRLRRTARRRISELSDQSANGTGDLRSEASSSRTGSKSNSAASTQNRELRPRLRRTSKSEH

- binding: binds
Molecule: Elys (from UniProt Q9VWE6 1-2111)

- binding: binds
Molecule: Nup98-96 (Drosophila (endogenous in embryos))

- binding: binds
B1: Nup160 (protein, UniProt Q9VKJ3 1-1411)
chain: MPTSKLQANMSYREVIPRNLSPAEWIEVKINTGTQSTLQDLKTFETSGGYCYKNTKNVQTRNRFIYWRTYQDVLELSEVSLDISLQRNHLRLRFTDSAVLNVSLTEQGTSVTLLVVTVSSVHRYVFPLKVAGQEGGAASPEDLLSQSIFYDVNDKINDPSTYYVTDGFGTMPNAAVSYLTQDSQSAYFAVAYQSKLLLHVMKCSTGHTITHEIKEPKLMPWFLSNLKGALTGRSETLEAATSMAFSEIGGEIFILVLYRNNELRLWSVDNLQTVASINCSTELGQDSAAQGPQNSQLRKISDQNFCLFLSHNSRAEFICVSIMPDADDASVINLVQNMVPAPQTDLVDFDATSSHIWALWSNAEGDFHVSAAYFASNNAIKWVSAALEPPPDRYCLTMEQGVDPRETYCSYIFHPGRFDRNVIAKALYMFRRVNLQFDVKQLSMSVLKEQVCQAVEDEIQNELKDFVVTDEEYLEISTRLWDRFYSCCEQYHIKLSEPTGLAVLGGMDAVCLVRRQSFALLRPCEVLEHLLLIGEHNDEVATYVAPLFRNDPEMAKGFVELMNVVTLLDKLISEDIKIELDKQLYQRESPVEVISKLVARISMIDDNGPILPSNCVRQIQQKLQNIPNLEPALEMLLDVLCMIDPDEPPHDYSLSTRFLQSSGALMGSEYGLSILSETVKQMAMIRFSVCRNLLVLQYMAYGQNEMESENVLTNLNYLNSYYTLVWIAETPISSSTPAGFEASIQRLSRAQLFSGYNRPYSSHLKHNGNDQTTLLRLFLESKGLFSALTMLLKHDSLSLDSEQLNLRQSLLQLVGYINKMLWPGSPIYVFPEWLFGTCHHIIVQDYVRILSNWCSVQKHARRFMLAVSLLDCGEAHKAVHLFHEAESGIVEDDFLFEHVLKNTPLYGKLQNSVSRGDTISPEDTKLAIVHYYLKVIQLFEQHSALDYIIQLADMAIRVLQPDDPQLPMFQSIVFNNHLQLGHYVEAYTALVNNADISRRKDCLRQLVITLFQNKCLPLLMQFSYIGLQDEFESIVESRARSMSIDQNEVYNFLYAFHTNKGNMRKASTVMYEQAMRFQVDSDAPNALEKRCSSLLICLNCLHLVDSRYRWIAKPVLGDEQVITIDQDNDDGEPKCDEDKRGQEVVVLELADIRRELVHAEALRELSFYRKDTAAYERATPEELSYLLASSGLYTAALKLSRGHSFSVLPIFESLTSACVAATEDKSSDAWNWLQNNDMADLPHRSNAADMAWTLLQKLVVDNEAKDSTLIRKSVVQRLLGLNAFLPQWLINSYKLSHSRELLHLLVKHNRLLEAADLGCEIIAGMLGAGSEYFEFKHAVNIANPQLCFPISTIDLLLHGLKINGKDDLDYEMAYFKLEEEVQRYIETIKRTTDDKMSMAVLQMRTDLQEER

Source: paper PMC10040217
